Taken from: PubChem BioAssay AID602196 (INSERM, 2012)

- Aim: 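Modifiers of cisplatin sensitivity in A549 cells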
- Cells: human A549 lung cancer cells
- Reagent: siRNA pair against human genes
- Time to read-out: 48 h transfection before cisplatin; time from cisplatin to read-out not stated
- Conditions: cisplatin at a dose killing half of control-siRNA cells; exact dose and duration not given
- Detection: 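Shift in cisplatin death relative to control siRNA, from -50 (all cells die) to +50 (no cells die); siRNAs harmful on their own scored 0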
- Reading the numbers: two-siRNA summed score (-2 to +2): higher = both siRNAs protect from cisplatin killing; -2 means both sensitise
- Call rule: 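Each siRNA scores 0 if harmful alone by LDH or WST-1, otherwise +1 if it reduces and -1 if it increases cisplatin killing; a gene is active when both siRNAs agree (sum +2 or -2)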
- Meaning of the calls: active = both siRNAs shift cisplatin killing the same way; inactive = no consistent shift, or siRNA harmful alone
The whole screen tested about 23,000 reagents; below is an unselected part. 455 of all reagents (2%) count as active. 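Active includes both protection and sensitisation; some change values fall well beyond the stated -50 to +50 range.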 Further read-outs or replicates are left out here. Not stated in the record: the amount of reagent.

For LOC139363 the deposit lists two-siRNA summed score (-2 to +2) = 1; inactive.
Against LOC441686 the deposit lists two-siRNA summed score (-2 to +2) = 0; inactive.
Silencing of KRTAP2-2 came out at: two-siRNA summed score (-2 to +2) = 0; inactive.
FYTTD1 scored two-siRNA summed score (-2 to +2) = 0; inactive.
DOCK6 scored two-siRNA summed score (-2 to +2) = 0; inactive.
For ZNF740, the entry reads two-siRNA summed score (-2 to +2) = 0; inactive.
Against PTPRF, the values are two-siRNA summed score (-2 to +2) = 0; inactive.
Against GPAM, the entry reads two-siRNA summed score (-2 to +2) = 0; inactive.
Depletion of LOC340511 resulted in: two-siRNA summed score (-2 to +2) = 0; inactive.
Silencing of POU5F2 gave: two-siRNA summed score (-2 to +2) = 0; inactive.
For TMEM108, the values are two-siRNA summed score (-2 to +2) = 0; inactive.
With knock-down of PNPO the results were two-siRNA summed score (-2 to +2) = -1; inactive.
Against LOC390488, the values are two-siRNA summed score (-2 to +2) = 1; inactive.
After knock-down of RTCA the results were two-siRNA summed score (-2 to +2) = 0; inactive.
Silencing of FAAH2 gave: two-siRNA summed score (-2 to +2) = 0; inactive.
Against TKFC the deposit lists two-siRNA summed score (-2 to +2) = 0; inactive.
After knock-down of DPEP3 the results were two-siRNA summed score (-2 to +2) = 0; inactive.
Against LOC400705, the entry reads two-siRNA summed score (-2 to +2) = 0; inactive.
LOC116064 gave two-siRNA summed score (-2 to +2) = 1; inactive.
Against AP3D1 the deposit lists two-siRNA summed score (-2 to +2) = 0; inactive.
RPL35A scored two-siRNA summed score (-2 to +2) = 0; inactive.

2 consecutive entries already listed, for reference:
FYTTD1 | two-siRNA summed score (-2 to +2) = 0; activity call = inactive
DOCK6 | two-siRNA summed score (-2 to +2) = 0; activity call = inactive
